PubChem BioAssay AID743121 – NCATS | 2013
In all, the deposit lists about 26,000 reagents; shown is a part drawn at random. 167 of them (0.63%) count as active. 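Calls are per gene from RSA p-values that are not deposited; an individual active-marked siRNA can sensitise only weakly.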 The numbers tell different reagents against one gene apart.

- Test: 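Knock-downs that sensitise breast cancer cells to camptothecin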 (primary screen)
- Cells: MDA-MB-231 cells, a human breast cancer line
- Reagent: single siRNA against human genes, 20 nM siRNA (0.8 pmol per well)
- Time to read-out: 120 h (drug added 48 h after transfection, read 72 h later)
- Treatment: camptothecin 20 nM (about EC30) for 72 h; vehicle 0.1% DMSO in parallel plates
- Measured: 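CellTiter-Glo ATP signal, scaled to control siRNA as percent viability; sensitisation given as log2 of untreated divided by camptothecin-treated viability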
- Reading the numbers: log2 vehicle/camptothecin viability: higher = stronger sensitisation to camptothecin; viability with camptothecin and viability without drug: higher = more viable cells
- Rule for the call: 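Each gene scored by redundant siRNA activity (RSA) over its individual siRNA ratios; a gene is called active at p < 0.001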

Gene	siRNA no.	log2 vehicle/camptothecin viability	viability with camptothecin (% of control)	viability without drug (% of control)	call
GNAT1 (GeneID 2779)	1	-0.107	72.8	67.6	inactive
GNAT1 (GeneID 2779)	2	-0.131	83.6	76.4	inactive
GNAT1 (GeneID 2779)	3	-0.858	118	64.9	inactive
GNAT1 (GeneID 2779)	4	0.0113	79	79.6	inactive
HNF1A (GeneID 6927)	1	-0.399	90.1	68.4	inactive
HNF1A (GeneID 6927)	2	0.0455	59.6	61.5	inactive
HNF1A (GeneID 6927)	3	-0.493	100	71.2	inactive
HNF1A (GeneID 6927)	4	-0.178	112	99	inactive
MX2 (GeneID 4600)	1	-0.359	78.9	61.5	inactive
MX2 (GeneID 4600)	2	-0.104	109	101	inactive
MX2 (GeneID 4600)	3	-0.246	37.2	31.4	inactive
MX2 (GeneID 4600)	4	-0.27	92.8	77	inactive
LZTS1 (GeneID 11178)	1	-0.392	52.8	40.2	inactive
LZTS1 (GeneID 11178)	2	-0.178	64.6	57.1	inactive
LZTS1 (GeneID 11178)	3	-0.207	81.5	70.7	inactive
LZTS1 (GeneID 11178)	4	-1.41	98.3	36.9	inactive
IVD (GeneID 3712)	1	-0.0576	91.6	88	inactive
IVD (GeneID 3712)	2	-0.289	73.5	60.2	inactive
IVD (GeneID 3712)	3	-0.369	86.2	66.7	inactive
IVD (GeneID 3712)	4	-0.603	74.2	48.9	inactive
PML (GeneID 5371)	1	-0.143	103	93.4	inactive
PML (GeneID 5371)	2	-0.647	130	83.1	inactive
PML (GeneID 5371)	3	0.181	37.8	42.9	inactive
GPR174 (GeneID 84636)	1	-0.121	109	99.9	inactive
GPR174 (GeneID 84636)	2	-0.0472	93.7	90.6	inactive
GPR174 (GeneID 84636)	3	-0.402	106	80.4	inactive
GPR174 (GeneID 84636)	4	-0.609	87.8	57.6	inactive
BCCIP (GeneID 56647)	1	0.168	87.3	98.1	inactive
BCCIP (GeneID 56647)	2	-0.222	94.6	81.1	inactive
BCCIP (GeneID 56647)	3	-0.219	115	98.9	inactive
BCCIP (GeneID 56647)	4	-0.213	101	87.3	inactive
NAGA (GeneID 4668)	1	-0.053	90.7	87.4	inactive
NAGA (GeneID 4668)	2	0.175	69.7	78.7	inactive
NAGA (GeneID 4668)	3	-0.222	81.5	69.9	inactive
PEX3 (GeneID 8504)	1	-0.155	103	92.7	inactive
PEX3 (GeneID 8504)	2	-0.236	111	94.1	inactive
PEX3 (GeneID 8504)	3	-0.516	74.4	52	inactive
PEX3 (GeneID 8504)	4	-0.454	93.1	68	inactive
NPY5R (GeneID 4889)	1	-0.548	63.1	43.1	inactive
NPY5R (GeneID 4889)	2	-0.396	97.5	74.1	inactive
NPY5R (GeneID 4889)	3	0.114	67.9	73.5	inactive
NPY5R (GeneID 4889)	4	-0.18	92.3	81.5	inactive
MAPKAP1 (GeneID 79109)	1	-0.0412	78.7	76.5	inactive
MAPKAP1 (GeneID 79109)	2	0.244	45.5	53.8	inactive
MAPKAP1 (GeneID 79109)	3	-0.219	61.4	52.7	inactive
MAPKAP1 (GeneID 79109)	4	-0.22	79	67.8	inactive
MSH4 (GeneID 4438)	1	-0.192	80.5	70.5	inactive
MSH4 (GeneID 4438)	2	0.0126	52.3	52.7	inactive
MSH4 (GeneID 4438)	3	0.244	30.3	35.8	inactive
MSH4 (GeneID 4438)	4	-0.649	88.2	56.3	inactive
CEL (GeneID 1056)	1	-0.0625	45.4	43.5	inactive
CEL (GeneID 1056)	2	-0.218	77.8	66.9	inactive
CEL (GeneID 1056)	3	-0.164	95.2	85	inactive
CEL (GeneID 1056)	4	-0.243	105	88.8	inactive
SGK3 (GeneID 23678)	1	0.294	20.3	24.9	inactive
SGK3 (GeneID 23678)	2	0.0023	108	108	inactive
SGK3 (GeneID 23678)	3	0.0157	83	83.9	inactive
SGK3 (GeneID 23678)	4	0.0699	70.3	73.8	inactive
ICAM1 (GeneID 3383)	1	-0.217	91.1	78.4	inactive
ICAM1 (GeneID 3383)	2	-0.0836	57.5	54.2	inactive
ICAM1 (GeneID 3383)	3	0.191	61.1	69.8	inactive
ICAM1 (GeneID 3383)	4	0.239	20.4	24	inactive
PPP4C (GeneID 5531)	1	0.185	61.4	69.9	inactive
PPP4C (GeneID 5531)	2	0.449	59.7	81.4	inactive
PPP4C (GeneID 5531)	3	-0.065	107	103	inactive
PPP4C (GeneID 5531)	4	0.0935	76	81.1	inactive
SMAD6 (GeneID 4091)	1	0.035	53	54.3	inactive
SMAD6 (GeneID 4091)	2	0.0209	90.5	91.8	inactive
SMAD6 (GeneID 4091)	3	-0.187	115	101	inactive
SMAD6 (GeneID 4091)	4	-0.201	80.6	70.2	inactive
